Consider one substance from article PMC12434091, “Real-time monitoring with iTLR4 assay identifies ligand-dependent TLR4-TLR4 conformational dynamics” (Frontiers in Immunology, 2025).

Amino acid sequences for entries named in this document (tags omitted).
UniProt P35372: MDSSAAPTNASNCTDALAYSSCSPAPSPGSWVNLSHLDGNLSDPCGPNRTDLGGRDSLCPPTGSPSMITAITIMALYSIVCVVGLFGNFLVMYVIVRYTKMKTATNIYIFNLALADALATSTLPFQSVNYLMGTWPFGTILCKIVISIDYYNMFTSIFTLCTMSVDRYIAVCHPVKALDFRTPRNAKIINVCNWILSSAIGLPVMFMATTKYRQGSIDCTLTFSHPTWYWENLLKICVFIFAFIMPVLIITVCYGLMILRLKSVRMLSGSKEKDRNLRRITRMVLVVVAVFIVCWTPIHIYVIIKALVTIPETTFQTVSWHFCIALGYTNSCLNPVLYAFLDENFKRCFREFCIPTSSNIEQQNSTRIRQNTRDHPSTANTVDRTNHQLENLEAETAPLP
UniProt P32121: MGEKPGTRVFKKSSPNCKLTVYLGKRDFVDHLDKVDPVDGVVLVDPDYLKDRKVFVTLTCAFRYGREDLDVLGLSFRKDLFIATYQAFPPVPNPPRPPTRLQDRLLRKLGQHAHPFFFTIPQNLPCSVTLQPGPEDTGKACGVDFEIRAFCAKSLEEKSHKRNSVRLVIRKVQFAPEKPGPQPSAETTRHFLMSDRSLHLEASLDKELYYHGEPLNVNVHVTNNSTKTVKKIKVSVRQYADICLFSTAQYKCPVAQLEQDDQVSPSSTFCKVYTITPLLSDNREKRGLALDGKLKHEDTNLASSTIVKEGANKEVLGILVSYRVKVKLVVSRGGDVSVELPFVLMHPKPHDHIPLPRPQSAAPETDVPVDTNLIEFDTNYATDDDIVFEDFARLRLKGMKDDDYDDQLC

No constants are given. Whether binding was seen depends on the method and setting. In cells and extracts the contact can be indirect. Some results given as binding are weak or reduced against the parent protein; the word gives no strength.

The assay addresses FLAG-MOP-Nluc (mu opioid receptor-Nanoluciferase) (UniProt P35372). In words: FRET or BRET; live HEK293 cells co-transfected with Flag-MOPR-Nluc (donor), β-arrestin-2-Venus (acceptor) and GRK2; Nano-Glo substrate, 37°C; DAMGO-induced BRET signal, alone or with 100 µM (+)- or (-)-naloxone.

On to “β-arrestin 2-Venus (from UniProt P32121 1-409)”, for which the binding result is given as “binds”.
